PubChem BioAssay AID1259266, Sanger Institute | 2017

Purpose: 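Search kinases and colorectal cancer genes for essential genes and drug synergy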 (primary screen)
Cells: LS123 human colorectal cancer cells
Reagents: siRNA pool against human genes
Conditions: anchor drugs BYL719 (1 µM), cetuximab (5 µg/ml) or trametinib (10 nM), each chosen to barely slow growth alone; DMSO vehicle as the drug-free arm
Read-out: 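Viability relative to non-targeting control pools, replicate mean, with a robust z-score for knock-down alone and synergy scores for each anchor drug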
Reading the numbers: robust z-score, knock-down alone: higher = more cells surviving after knock-down
Active means: 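a knock-down counts as essential if its z-score without drug is under -3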
Calls: active = essential (knock-down alone cuts viability); inactive = no change
In all, the deposit lists 794 reagents; this is an unselected part. Of all reagents, 16 (2%) got an active call. 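Calls reflect knock-down alone, not drug synergy; viability seems capped at 1 and z-scores at 0.585.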 Further read-outs or replicates are left out here. Reagent sequences are not shown. The record does not give: the amount of reagent, the time to read-out.

target gene	robust z-score, knock-down alone	Outcome
PTEN (phosphatase and tensin homolog)	0.135	inactive
PINK1 (PTEN induced kinase 1)	0.571	inactive
TNK2 (tyrosine kinase non receptor 2)	0.279	inactive
PAPSS2 (3'-phosphoadenosine 5'-phosphosulfate synthase 2)	0.585	inactive
CASK (calcium/calmodulin dependent serine protein kinase)	-1.02	inactive
TTBK2 (tau tubulin kinase 2)	0.0335	inactive
MAP3K10 (mitogen-activated protein kinase kinase kinase 10)	0.585	inactive
XYLB (xylulokinase)	0.585	inactive
PRKCE (protein kinase C epsilon)	0.585	inactive
STK17B (serine/threonine kinase 17b)	0.134	inactive
SRP72 (signal recognition particle 72)	0.585	inactive
MAP2K4 (mitogen-activated protein kinase kinase 4)	0.244	inactive
RUNX1 (RUNX family transcription factor 1)	0.31	inactive
PDXK (pyridoxal kinase)	0.492	inactive
PIP4K2B (phosphatidylinositol-5-phosphate 4-kinase type 2 beta)	0.585	inactive
CILK1 (ciliogenesis associated kinase 1)	0.488	inactive
TEK (TEK receptor tyrosine kinase)	0.585	inactive
ATM (ATM serine/threonine kinase)	0.457	inactive
CDK19 (cyclin dependent kinase 19)	0.569	inactive
CMPK1 (cytidine/uridine monophosphate kinase 1)	0.585	inactive
CAMK1G (calcium/calmodulin dependent protein kinase IG)	0.585	inactive
EFNA5 (ephrin A5)	0.585	inactive
HIPK2 (homeodomain interacting protein kinase 2)	0.585	inactive
PCK2 (phosphoenolpyruvate carboxykinase 2, mitochondrial)	0.585	inactive
MERTK (MER proto-oncogene, tyrosine kinase)	0.585	inactive
TRPM7	-0.253	inactive
CHEK1 (checkpoint kinase 1)	-5.33	active
LTK (leukocyte receptor tyrosine kinase)	-0.195	inactive
GRK7 (G protein-coupled receptor kinase 7)	-0.457	inactive
MAP3K11 (mitogen-activated protein kinase kinase kinase 11)	-0.391	inactive
PPP2R1A (protein phosphatase 2 scaffold subunit Aalpha)	0.585	inactive
INSRR (insulin receptor related receptor)	0.585	inactive
RPS6KA3 (ribosomal protein S6 kinase A3)	0.585	inactive
PFKL (phosphofructokinase, liver type)	0.585	inactive
WNK2 (WNK lysine deficient protein kinase 2)	0.585	inactive
SGK3 (serum/glucocorticoid regulated kinase family member 3)	0.282	inactive
FBXW7 (F-box and WD repeat domain containing 7)	0.585	inactive
MAPK9 (mitogen-activated protein kinase 9)	0.142	inactive
PKN1 (protein kinase N1)	0.585	inactive
AAK1 (AP2 associated kinase 1)	-2.13	inactive
SGK1 (serum/glucocorticoid regulated kinase 1)	0.585	inactive
DGKH (diacylglycerol kinase eta)	0.471	inactive
PDGFRA (platelet derived growth factor receptor alpha)	-1.27	inactive
EPHA5 (EPH receptor A5)	0.585	inactive
CKMT1B (creatine kinase, mitochondrial 1B)	-1.1	inactive
MOS (MOS proto-oncogene, serine/threonine kinase)	-0.521	inactive
PRKAA1 (protein kinase AMP-activated catalytic subunit alpha 1)	0.585	inactive
FGFR2 (fibroblast growth factor receptor 2)	0.436	inactive
OBSCN	0.347	inactive
CDK17 (cyclin dependent kinase 17)	0.585	inactive
